Source: EP4711377A1, “STEROID COMPOUND, PREPARATION METHOD THEREFOR, AND USE THEREOF” (Shujing Biopharma Co., Ltd, priority 2023, dated 2024)
At least one structure is not confirmed: it was looked up by name or label, or the drawing left a doubt.

By UniProt entry, the sequences of proteins in these tests, tags left out. Residues count along the entry.
UniProt P14867, 28-456: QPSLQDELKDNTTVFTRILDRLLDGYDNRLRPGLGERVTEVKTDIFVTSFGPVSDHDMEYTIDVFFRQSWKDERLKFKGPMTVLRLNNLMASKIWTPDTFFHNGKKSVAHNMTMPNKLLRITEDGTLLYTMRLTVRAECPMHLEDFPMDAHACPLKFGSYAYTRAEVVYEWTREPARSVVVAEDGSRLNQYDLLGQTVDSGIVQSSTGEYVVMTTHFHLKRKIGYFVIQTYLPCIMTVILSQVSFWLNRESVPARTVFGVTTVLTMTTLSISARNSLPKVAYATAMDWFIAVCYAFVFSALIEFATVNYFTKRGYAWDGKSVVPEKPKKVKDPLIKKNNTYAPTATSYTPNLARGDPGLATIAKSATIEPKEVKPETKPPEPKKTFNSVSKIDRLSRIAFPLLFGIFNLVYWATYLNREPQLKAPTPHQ
UniProt P47870, 25-512 limits assumed: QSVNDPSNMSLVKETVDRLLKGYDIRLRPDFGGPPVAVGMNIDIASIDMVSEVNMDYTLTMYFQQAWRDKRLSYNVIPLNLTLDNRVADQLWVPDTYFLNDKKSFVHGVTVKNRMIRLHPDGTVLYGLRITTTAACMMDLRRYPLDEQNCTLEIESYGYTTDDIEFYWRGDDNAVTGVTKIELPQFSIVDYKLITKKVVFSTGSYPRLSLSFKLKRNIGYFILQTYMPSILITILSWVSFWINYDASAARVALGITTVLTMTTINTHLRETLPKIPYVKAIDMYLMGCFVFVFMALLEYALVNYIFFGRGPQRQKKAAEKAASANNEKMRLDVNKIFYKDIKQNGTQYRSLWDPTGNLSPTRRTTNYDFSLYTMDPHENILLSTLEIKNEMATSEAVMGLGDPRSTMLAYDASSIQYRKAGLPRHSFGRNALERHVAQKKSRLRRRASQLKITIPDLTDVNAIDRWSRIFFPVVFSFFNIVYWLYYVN

Target: GABAa receptor (α1β2γ2) (Homo sapiens, UniProt P14867+P47870)
Assay: in vitro GABAa receptor (α1β2γ2) cellular activity assay, manual whole-cell patch clamp, enhancement of currents induced by 1 µM GABA
Assay type: cell-based
Details: conclusion in words from Table 1-2
Procedure: The cells used in this experiment were derived from a CHO cell line that stably expressed normal GABAa receptor functions after transfection with human GABAa receptor α1, β2, and γ2 subunit cDNAs. The cell line was constructed by B'sys GmbH. The cells were cultured in a medium (purchased from Invitrogen) containing the following components: DMEM culture medium; 10% (v/v) inactivated fetal bovine serum; 5 µg/mL Puromycin; 250 µg/mL Hygromycin B; and 100 µg/mL Zeocin. The cells were grown in culture dishes containing the above medium and cultured in an incubator at 37 °C with 5% CO2. 12 h to 24 h before the electrophysiological experiment, the cells were transferred onto circular glass slides placed in culture dishes, and were grown under the same medium and culture conditions as above. The density of cells on each circular glass slide was required to meet the requirement that the overwhelming majority of cells were independent and individual.
In this experiment, a manual patch-clamp system HEKA EPC10 USB signal amplifier and digital conversion system (purchased from HEKA Electronics, Germany) were used for whole-cell current recording. […]
The experimental data were analyzed using data analysis software provided by HEKA Patchmaster, Microsoft Excel, and Graphpad Prism.

Structure (SMILES): C[C@@H]1C[C@H](C(=O)Cn2cc(C#N)cn2)[C@@]2(C)CC[C@H]3[C@@H](CC[C@@H]4C[C@](C)(O)[C@@H](C)C[C@@H]43)[C@H]12 [Example 2, 1-(2-((2S,3S,5R,8R,9R,10S,13S,14S,15R,17S)-3-Hydroxy-2,3,13,15-tetramethylhexadecahydro-1H-cyclopenta[a]phenanthren-17-yl)-2-oxoethyl)-1H-pyrazole-4-carbonitrile]
- Emax compared to Sage-217: lower Emax compared to Sage-217
